Assay results: US20130022635A1, “Expression Modulator For Clock Gene Bmal” (SHISEIDO COMPANY, LTD., priority 2010, published 2013)
At least one structure is not confirmed: it was looked up by name or label, or the drawing left a doubt.

System: Bmal1 gene
Experiment: Bmal1 gene expression (RT-PCR, relative to RPLP0) in cultured human skin fibroblastic cells
Format: cell-based
Settings: expression at 2 and 16 hours after stimulation
Experimental: As the cultured human fibroblastic cells, fibroblastic cells from normal human skin were purchased (Cell Application, Inc.) and used in the experiments. They were inoculated in DMEM medium supplemented with 10% FBS, 20 mM HEPES, Glutamax and antibacterial agents and cultured at 37° C. in 5% CO2. On the 6th day of culture, 50 ng/mL of cortisol or 10 μM of forskolin was added, and the samples were harvested at various times after time 0, which was defined as the time immediately after the addition of cortisol or forskolin. RNA was extracted from the cells with a commercially available RNA extraction kit, and the amounts of expression of the intended genes were measured by RT-PCR technology using commercially available PCR primers (Perfect Real Time Primer, Takara Bio). As for clock genes, amounts of expression of Period (represented by Period1) and Bmal1, which are involved in the core system, were determined. Similarly, the amounts of expression of a housekeeping gene RPLP0 were quantified and used as an internal standard to calculate the relative expression of the intended genes to RPLP0. […] Test substances were evaluated for the expression modulating effect on a Bmal gene based on the amount of gene expression at 16 hours after stimulation. […]

Structure (SMILES): C=C[C@@]1(C)CC(=O)[C@]2(O)[C@@]3(C)[C@@H](O)CCC(C)(C)[C@@H]3[C@H](O)[C@H](OC(C)=O)[C@@]2(C)O1 [forskolin]
- Induction of Bmal1 expression rhythm and increase of Bmal1 gene expression (in words): significantly increase amounts of gene expression of Bmal1
